The target of the test is T1, FLAG-BirA*-IBTK (UniProt Q9P2D0).
T1 sequence: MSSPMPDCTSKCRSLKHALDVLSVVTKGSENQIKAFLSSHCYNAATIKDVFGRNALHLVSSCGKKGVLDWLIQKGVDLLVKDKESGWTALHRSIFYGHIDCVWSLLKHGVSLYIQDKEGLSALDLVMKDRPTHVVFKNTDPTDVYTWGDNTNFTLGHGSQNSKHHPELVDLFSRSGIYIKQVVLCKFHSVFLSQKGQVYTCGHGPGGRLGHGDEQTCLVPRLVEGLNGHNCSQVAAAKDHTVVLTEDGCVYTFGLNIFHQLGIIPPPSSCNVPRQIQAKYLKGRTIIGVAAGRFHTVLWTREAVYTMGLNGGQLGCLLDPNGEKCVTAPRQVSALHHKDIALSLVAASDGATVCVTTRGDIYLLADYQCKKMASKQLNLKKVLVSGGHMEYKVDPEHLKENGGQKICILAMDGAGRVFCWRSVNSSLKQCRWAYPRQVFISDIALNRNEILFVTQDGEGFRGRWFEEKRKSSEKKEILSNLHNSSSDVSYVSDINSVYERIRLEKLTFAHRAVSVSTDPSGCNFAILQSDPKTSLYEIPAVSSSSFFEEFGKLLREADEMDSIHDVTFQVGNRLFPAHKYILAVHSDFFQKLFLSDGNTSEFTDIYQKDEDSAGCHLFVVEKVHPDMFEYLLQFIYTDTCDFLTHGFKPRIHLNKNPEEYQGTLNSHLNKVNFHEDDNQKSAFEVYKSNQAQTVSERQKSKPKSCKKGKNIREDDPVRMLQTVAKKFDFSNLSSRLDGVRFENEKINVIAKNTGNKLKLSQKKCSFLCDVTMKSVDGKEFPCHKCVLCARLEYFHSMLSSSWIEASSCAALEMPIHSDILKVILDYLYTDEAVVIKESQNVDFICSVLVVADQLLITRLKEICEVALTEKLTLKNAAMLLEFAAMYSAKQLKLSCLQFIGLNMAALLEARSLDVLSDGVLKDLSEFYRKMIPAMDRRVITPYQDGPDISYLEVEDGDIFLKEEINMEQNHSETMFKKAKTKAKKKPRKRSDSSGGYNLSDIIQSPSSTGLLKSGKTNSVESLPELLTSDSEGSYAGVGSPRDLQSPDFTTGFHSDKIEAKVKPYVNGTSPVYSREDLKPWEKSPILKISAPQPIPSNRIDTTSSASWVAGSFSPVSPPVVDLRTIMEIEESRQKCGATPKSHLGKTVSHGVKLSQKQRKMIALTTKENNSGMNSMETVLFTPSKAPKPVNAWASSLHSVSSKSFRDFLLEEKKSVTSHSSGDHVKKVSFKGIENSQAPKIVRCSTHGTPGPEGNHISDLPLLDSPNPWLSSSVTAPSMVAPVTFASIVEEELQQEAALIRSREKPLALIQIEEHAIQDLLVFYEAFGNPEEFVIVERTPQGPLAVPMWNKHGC
As to the kind of experiment: co-IP.

These are yes or no findings as the source states them, for the method shown. Binding seen in cells or lysates may run through a third protein. Sequences can lack the tags named with a protein.

In the case of “eIF4G, endogenous (human (endogenous in Flp-In T-REx 293))”, the binding entry was “no binding”.
